Laboratory results as given in PubChem BioAssay AID1347076 (National Center for Advancing Translational Sciences (NCATS), 2019).
Out of some 400,000 compounds screened, about 13,000 (3.2%) were called active. Inconclusive results, whose numbers are uncertain, are shown with a selection of clear calls. The call rests on the fitted dose curve; in most records, active means well fitted cell-killing curve with a large enough effect; inconclusive means small, poorly fitted or top-dose-only effect, or effect the other way; inactive means flat fitted curve, though single readings scatter. Potencies of inconclusive entries are doubtful fits and often do not repeat.

Experiment: qHTS assay for MDR1-selective chemotherapeutics: Primary screen using the drug-selected MDR subline cells KB-V1; further: nearly all actives have a fitted effect of over 60% in size
Details: KB-V1 MDR cells viability, CellTiter-Glo, 72 h; activity change, negative = cytotoxicity: at 46.1 µM (top of the series)
Outline: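 Compound-treated KB-V1 multidrug-resistant cells, 72 h, 37 degrees C; viability by CellTiter-Glo. Fitted qHTS curves give the values.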
On the % scale 0 is the no-effect control and ±100 the full control effect; potency means the concentration at half of the fitted maximal effect.

Compound	Potency	activity change, negative = cytotoxicity
Cc1oc(-c2cccc(Cl)c2)nc1CN1CCCC(C(=O)NC(C)c2ccc3c(c2)OCCO3)C1 (centres undefined)	active: 25.9 µM	
Cc1ccc(C)c(NC(=O)/C(C#N)=C/c2cn(CC(=O)NCc3ccco3)c3ccccc23)c1		inactive: 2.11%
CCc1nnc(NC(=O)CSc2nc(-c3ccccc3)cc(-c3ccc(F)cc3)c2C#N)s1	inconclusive: 0.92 µM [cytotoxic, full curve]	
O=C(Nc1ncccn1)c1cccc(F)c1		inactive: 3.53%
Cc1cccc(NC(=O)CSc2nc(C)c(CC(=O)c3ccc(Br)cc3)c(C)c2C#N)c1C	inconclusive: 20.6 µM [cytotoxic, single point]	
O=C(NCCCC(=O)N1CCOCC1)c1cccnc1	inconclusive: 11.6 µM [rising, partial curve]	
COc1cccc(N2CCN(C(=O)c3cc4c(=O)oc5ccc(C)cc5c4s3)CC2)c1	inconclusive: 32.6 µM [rising, single point]	
Cc1nnc(SCC(=O)Nc2c(Cl)cccc2Cl)n(N)c1=O		inactive: -5.25%
CSCC[C@H](NC(=O)OC(C)(C)C)c1nnc(SCc2ccc(F)cc2)o1	active: 20.6 µM	
CCCC(=O)N1CCN(c2nc3ccc(Br)cc3s2)CC1		inactive: -5.12%
O=C(Nc1ccncc1)c1sc2ccccc2c1Cl	active: 8.2 µM	
Cn1c(CSCc2ccccc2)n[nH]c1=S	inconclusive: 20.6 µM [rising, single point]	
COc1ccc(OC)c2[nH]c(=O)c(CCNC(=O)c3cccs3)cc12		inactive: -13.3%
CCCCCC(=O)N1C[C@H](O)[C@@H](n2cc(-c3ccc(F)cc3)nn2)C[C@@H]1c1ccc(C)cc1	inconclusive: 13 µM [cytotoxic, partial curve, poor fit]	
COc1ccccc1C(C)NCC(=O)NC(=O)NCc1ccco1 (centres undefined)	inconclusive: 18.4 µM [cytotoxic, single point]	
Cc1ccc(OCCNC(=O)c2cccc(Oc3ccc(C(F)(F)F)cc3[N+](=O)[O-])c2)cc1	inconclusive: 13 µM [cytotoxic, partial curve]	
CC(C)c1nnc(NC(=O)CCS(=O)(=O)Cc2ccccc2)s1	inconclusive: 29.1 µM [rising, single point]	
COc1cccc(-c2ccc3c(N)c(C(=O)Nc4cc(C(F)(F)F)ccc4OC)sc3n2)c1		inactive: -2.55%
COc1cc(OC)c(C2Nc3cccc4cccc(c34)N2)c(OC)c1		inactive: -4.89%
COc1ccc(C(NC(=O)c2cc(OC)ccc2OC)c2ccccc2)cc1 (centres undefined)	active: 8.2 µM	
CCCCN(CC(O)COc1cccc(C)c1)CC(O)COc1cccc(C)c1 (centres undefined)	inconclusive: 4.11 µM [cytotoxic, partial curve, poor fit]	
Cc1cc(C(=O)N2CCN(c3cccc(C)c3C)CC2)c2c(C)nn(-c3ccccc3)c2n1		inactive: 4.47%
CCOC(=O)C1=C(C)NC(C)=C(C(=O)OCC)C1C(=O)OCC(=O)NC1CCCCC1	inconclusive: 25.9 µM [cytotoxic, partial curve, poor fit]	
CCN(CC)c1cc(CS(=O)c2ccccc2)nc(-c2ccccc2)n1 (centres undefined)		inactive: -16.9%
COC(=O)c1cccc(S(=O)(=O)N2CCC(c3nc4ccccc4o3)CC2)c1		inactive: -23.1%

Compound	Potency	activity change, negative = cytotoxicity
Cc1nc2ccccn2c1C(=O)N/N=C/c1ccc([N+](=O)[O-])o1	inconclusive: 23.1 µM [cytotoxic, single point]	
CC1(C)O[C@@H]1COc1c2ccoc2cc2oc(=O)ccc12	inconclusive: 20.6 µM [rising, single point]	
CCn1c(-c2cccn(Cc3ccc(Cl)cc3Cl)c2=O)n[nH]c1=S	inconclusive: 18.4 µM [cytotoxic, single point]	
NS(=O)(=O)c1ccc(CCNC2CC(=O)N(CCc3ccccc3)C2=O)cc1 (centres undefined)	inconclusive: 29.1 µM [rising, single point]	
Cc1ccc(NCC(=O)Nc2cccc(S(=O)(=O)N(C)C)c2)cc1S(=O)(=O)N1CCCCCC1	inconclusive: 18.4 µM [cytotoxic, single point]	
CCCC(=O)NC(C)c1nc2ccccc2n1Cc1ccccc1 (centres undefined)		inactive: -7.95%
Cn1c(=S)c2[nH]c(SCc3cccnc3)nc2n(C)c1=O	active: 16.4 µM	
Cc1nn(Cc2ccc([N+](=O)[O-])cc2)c(=O)n1-c1ccc(Cl)cc1	inconclusive: 20.6 µM [cytotoxic, single point]	
CC1(C)CC(=O)C=C(c2ccc(-c3cccc4c3sc3ccccc34)cc2)C1=O		inactive: -5.79%
CCCc1cc(C(=O)N2CCCC(Nc3ccc(C)c(C)c3)C2)n(C)n1 (centres undefined)	inconclusive: 20.6 µM [cytotoxic, single point]	
Cc1ccc(C(OCC(O)CNC(C)c2ccccc2)c2ccccc2)cc1 (centres undefined)	inconclusive: 5.8 µM [cytotoxic, partial curve]	
Cc1ccccc1NC(=O)CSc1nnc(C2CC2)n1CC1CCCO1 (centres undefined)		inactive: -14.7%
Cn1cccc1/C=C1/SC(=O)N(CC(=O)N2CCCC2)C1=O	active: 16.4 µM	
O=c1[nH]c2cc3c(cc2cc1CN(Cc1nnnn1C1CCCC1)C1CCCC1)OCCO3		inactive: -35.2%
CC(C)(C)n1ncc2c(=O)n(CC(=O)NCc3ccc(F)cc3)cnc21	active: 9.2 µM	
CCOCCOC(=O)NCCCCCCNC(=O)OCCOCC	inconclusive: 6.51 µM [cytotoxic, full curve]	
CCOC(=O)N1CCN(C(=O)COc2cc(C)c(Cl)c(C)c2)CC1	inconclusive: 16.4 µM [cytotoxic, single point]	
CSCCC(NC(=O)c1cc(CC(C)C)oc1C)C(=O)O (centres undefined)	inconclusive: 14.6 µM [rising, partial curve, poor fit]	
CCOC(=O)c1cccc(NC(=O)/C=C/c2ccc3c(c2)OCO3)c1	inconclusive: 29.1 µM [cytotoxic, single point]	
COc1ccc2nc(SCC(=O)NCc3ccc(S(N)(=O)=O)cc3)[nH]c2c1		inactive: -9.35%
COc1ccc(Nc2c3ccccc3nc3ccccc23)cc1	inconclusive: 3.26 µM [cytotoxic, full curve, poor fit]	
CCN(CC)c1nc2ccccc2[nH]c1=O		inconclusive: 114%
Cc1cc(O)c(N=Cc2cc3c(cc2[N+](=O)[O-])OCO3)cc1C		inactive: 13.7%
CN(C)S(=O)(=O)c1cccc(C(=O)NCC2(N3CCOCC3)CCCCC2)c1	inconclusive: 14.6 µM [cytotoxic, partial curve]	
COc1cc(/C=N/n2c(COc3ccccc3)n[nH]c2=S)cc(OC)c1OC(C)=O		inactive: 16.9%

Among those listed so far, these have a cyano group:
Compound	Potency	activity change, negative = cytotoxicity
Cc1ccc(C)c(NC(=O)/C(C#N)=C/c2cn(CC(=O)NCc3ccco3)c3ccccc23)c1		inactive: 2.11%
CCc1nnc(NC(=O)CSc2nc(-c3ccccc3)cc(-c3ccc(F)cc3)c2C#N)s1	inconclusive: 0.92 µM [cytotoxic, full curve]	
Cc1cccc(NC(=O)CSc2nc(C)c(CC(=O)c3ccc(Br)cc3)c(C)c2C#N)c1C	inconclusive: 20.6 µM [cytotoxic, single point]	

Following part.

Compound	Potency	activity change, negative = cytotoxicity
COc1ccc(C)cc1NC(=O)CCC(=O)Nc1ccc2nc(N3CCN(C)CC3)cc(C)c2c1	inconclusive: 7.31 µM [cytotoxic, partial curve]	
COc1ccc(CCNC(=O)CSCc2ccc([N+](=O)[O-])cc2)cc1	inconclusive: 20.6 µM [cytotoxic, single point]	
N#C/C(=N/Nc1ccc(OC(F)(F)F)cc1)C(N)=S	inconclusive: 23.1 µM [cytotoxic, single point]	
CC(C)(C)c1ccc(/C=C2\Oc3cc(OC(=O)N4CCOCC4)ccc3C2=O)cc1		inactive: -25.6%
COc1ccc(Nc2nc(C(=O)N(CCO)Cc3ccccc3)cs2)cc1	inconclusive: 3.26 µM [cytotoxic, partial curve, poor fit]	
Cc1cccc(Nc2n[nH]c(C)c2[N+](=O)[O-])c1		inactive: -17.6%
CC(=O)Nc1ccc(-c2ccnc3c2CC(C(=O)Nc2cccc(N(C)C)c2)O3)cc1 (centres undefined)		inactive: -13.2%
CC1(C(=O)NCCc2ccccc2)Cc2c(-c3ccccc3)ccnc2O1 (centres undefined)	inconclusive: 29.1 µM [cytotoxic, single point]	
CCOc1ccc(NC(=O)CN(C)C(=O)c2cc(S(=O)(=O)N3CCCCC3)ccc2C)cc1OCC	inconclusive: 5.8 µM [cytotoxic, partial curve]	
O=C1C2CCCN2C(=O)N1CCCCN1CCN(c2cccc(Cl)c2)CC1 (centres undefined)	active: 8.2 µM	
CC(=O)c1ccccc1C(=O)N1CCCC(CNC(=O)c2ccc(F)cc2)C1 (centres undefined)		inactive: 17.5%
O=C(CCc1c[nH]c2ccccc12)NC(Cc1ccccc1)C(=O)O (centres undefined)	inconclusive: 20.6 µM [rising, single point]	
COc1cccc(CNC(=O)c2ccc(CS(=O)(=O)Cc3ccccc3C)o2)c1		inactive: -16.7%
CS(=O)(=O)Nc1cccc(C2=NN(C(=O)c3ccco3)C(c3ccco3)C2)c1 (centres undefined)		inactive: -14.2%
Cc1ccc(Nc2nnc(-c3ccccc3N)o2)cc1C	inconclusive: 6.51 µM [rising, partial curve]	
Cc1cc(C)cc(OCc2ccc(C(=O)N3N=C(C(F)F)CC3(O)C(F)F)o2)c1 (centres undefined)	inconclusive: 29.1 µM [cytotoxic, single point]	
COc1ccc2c(c1)[nH]c(=O)c1sc3ccccc3c12		inactive: -35.5%
Oc1[nH]c2ccccc2c1N=NC(=S)N1CCOCC1	inconclusive: 1.3 µM [cytotoxic, partial curve, poor fit]	
Cc1ccccc1C(=O)Nc1nnc2n1CCS2	inconclusive: 29.1 µM [rising, single point]	
CCC(C)Sc1ccc(-c2nc3ccc(C)cn3c2NC2CCCCC2)cc1 (centres undefined)	inconclusive: 2.06 µM [cytotoxic, full curve]	
CC(C)OP(=O)(c1ccc(N(C)C)cc1)C(Nc1ccccc1)c1ccccc1 (centres undefined)	inconclusive: 14.6 µM [cytotoxic, partial curve]	
C=CCn1c(C)cc(-c2csc(NC)n2)c1C		inactive: -11.1%
c1ccc(Nc2ccnc(Nc3ccccc3)n2)cc1	active: 18.4 µM	
CCOC(=O)c1cc(C(=O)NC(C)c2ccccc2)c(=O)[nH]c1C (centres undefined)		inactive: 2.39%
